For 24 compounds, T/C and survivor count results are on record in PubChem BioAssay AID256 (DTP/NCI, 2004).

The assay relates to CD2F1 mice, L1210 leukemia ip, survival T/C. Description: NCI In Vivo Anticancer Drug Screen. Data for tumor model L1210 Leukemia (intraperitoneal) in CD2F1 (CDF1) mice. Conditions: higher T/C = longer survival. An outline of the steps: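 Mice carrying a transplanted tumor received test compound or vehicle alone. The value is the measurement in the treated group divided by that in the vehicle-treated control group.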

The mark [1] stands for this setting: T/C endpoint: mean survival time, dose: 200.0 mg/kg/injection, schedule: Q04DX003 (ip), vehicle: saline.
Setting [2] is: T/C endpoint: mean survival time, dose: 400.0 mg/kg/injection, schedule: Q04DX003 (ip), vehicle: saline.
Where [3] appears, read: T/C endpoint: mean survival time, dose: 400.0 mg/kg/injection, schedule: Q01DX001 (ip), vehicle: saline with Tween-80.
Setting [4] is: T/C endpoint: mean survival time, dose: 400.0 mg/kg/injection, schedule: Q04DX003 (ip), vehicle: saline with Tween-80.

SMILES strings stand for the structures. The list shows only some results of the screen, not a fair sample: it is rich in T/C values a quarter to a half above the control, in often repeated tests (any T/C) and in doses without a T/C. Further doses and runs are listed elsewhere. T/C gives the treated animals as a percentage of the vehicle group. Some doses have a count of surviving animals in place of a T/C: the source holds a T/C of zero for them, seemingly a mark for toxic or unscored doses. Some survivor counts are full or nearly so, which does not show that the dose was tolerated: survival well below the control is almost never listed, so the zero probably covers shortened survival too. Counts of survivors are from the toxicity check (mostly the fifth day) where no day follows; animals may have died later. Schedule codes are those of the source, read here as Q, the interval in days (D) or hours (H), X, the number of doses. Some doses were run more than once; the values are given in rising order. For survival time, the PubChem record calls one and a half times the control and up active, and a quarter to a half above the control has no call in these data; cut-offs in other NCI protocols can differ.

On to `O=C(Nc1ccc(C2=NCCN2)cc1)c1ccc(C(=O)Nc2ccc(C3=NCCN3)cc2)cc1`, for which the T/C by setting is: (T/C endpoint: mean survival time, dose: 12.0 mg/kg/injection, schedule: Q01DX008 (iv), vehicle: water) 144 % of control; (T/C endpoint: mean survival time, dose: 18.0 mg/kg/injection, schedule: Q01DX008 (iv), vehicle: water) 130 % of control; (T/C endpoint: mean survival time, dose: 27.0 mg/kg/injection, schedule: Q01DX008 (iv), vehicle: water) 146 % of control; (T/C endpoint: mean survival time, dose: 50.0 mg/kg/injection, schedule: Q01DX007 (ip), vehicle: water) 138 % of control; (T/C endpoint: mean survival time, dose: 50.0 mg/kg/injection, schedule: Q01DX009 (ip), vehicle: water) 138 % of control; (T/C endpoint: mean survival time, dose: 50.0 mg/kg/injection, schedule: Q03DX003 (ip), vehicle: water) 126 % of control. For the same compound, the T/C (T/C endpoint: mean survival time, dose: 100.0 mg/kg/injection, schedule: Q01DX009 (ip), vehicle: water) is 148 % of control; the T/C (T/C endpoint: mean survival time, dose: 100.0 mg/kg/injection, schedule: Q03DX003 (ip), vehicle: water) is 129 % of control; the T/C (T/C endpoint: mean survival time, dose: 200.0 mg/kg/injection, schedule: Q03DX003 (ip), vehicle: water) was 140 % of control; the T/C (T/C endpoint: mean survival time, dose: 200.0 mg/kg/injection, schedule: Q04DX003 (ip), vehicle: water) was 137 % of control.

Turning to `CN1C=c2c3c(ccc2=C2C=CC4C=C5OCOC5=CC4=C21)OCO3` (stereo not given), the survivor count reads like this: (T/C endpoint: mean survival time, dose: 100.0 mg/kg/injection, schedule: Q04DX003 (ip), vehicle: saline) 5 of 6; under setting [1], 0 of 6; under setting [2], 0 of 6.

On to `CCN(CC)Cc1cc(Nc2ncnc3[nH]c(C)c(C)c23)ccc1O`, for which the survivor count reads like this: (T/C endpoint: mean survival time, dose: 100.0 mg/kg/injection, schedule: Q04DX002 (ip), vehicle: saline with Tween-80) 3 of 3; under setting [3], 1 of 6.

As for `NC(=O)CCl`, the survivor count reads like this: under setting [1], 0 of 6; under setting [2], 0 of 6.

Turning to `Cc1cc(NCCCCCCNc2cc(C)nc3cc(N(C)C)ccc23)c2ccc(N(C)C)cc2n1`, the T/C runs as follows: (T/C endpoint: median survival time, dose: 3.12 mg/kg/injection, schedule: Q01DX009 (ip), vehicle: distilled water + Tween-80 + alcohol) 132 % of control; (T/C endpoint: median survival time, dose: 6.25 mg/kg/injection, schedule: Q01DX009 (ip), vehicle: distilled water + Tween-80 + alcohol) 137 and 138 % of control; (T/C endpoint: median survival time, dose: 12.5 mg/kg/injection, schedule: Q01DX009 (ip), vehicle: distilled water + Tween-80 + alcohol) 141 and 146 % of control. Moreover, the survivor count is, setting by setting: (T/C endpoint: median survival time, dose: 50.0 mg/kg/injection, schedule: Q01DX009 (ip), vehicle: distilled water + Tween-80 + alcohol) 0 of 6 and 5 of 6; (T/C endpoint: median survival time, dose: 100.0 mg/kg/injection, schedule: Q01DX009 (ip), vehicle: distilled water + Tween-80 + alcohol) 0 of 6.

On to `O=S(=O)(SC(Cl)(Cl)Cl)c1ccc(Cl)cc1`, for which the survivor count by setting is: (T/C endpoint: mean survival time, dose: 200.0 mg/kg/injection, schedule: Q01DX001 (ip), vehicle: saline with Tween-80) 1 of 6; under setting [3], 0 of 6.

As to `CCCCCCCCC/C(C)=N\NC(=O)c1ccccc1`, the survivor count (T/C endpoint: mean survival time, dose: 200.0 mg/kg/injection, schedule: Q01DX009 (ip), vehicle: saline sonified) was 3 of 6.

Consider `Nc1ccccc1-c1ccccc1N`, for which the survivor count (T/C endpoint: mean survival time, dose: 200.0 mg/kg/injection, schedule: Q04DX002 (ip), vehicle: saline) was 3 of 3 and the survivor count (T/C endpoint: mean survival time, dose: 400.0 mg/kg/injection, schedule: Q04DX002 (ip), vehicle: saline) is 0 of 3.

Regarding `C=CCNc1nc2c(s1)CCc1cc(OC)c(OC)cc1-2`, for the setting “T/C endpoint: mean survival time, dose: 400.0 mg/kg/injection, schedule: Q01DX009 (ip), vehicle: saline with Tween-80”, the survivor count was 3 of 6.

Turning to `N#CCOc1cccc([N+](=O)[O-])c1`, the survivor count under setting [4] is on record as 2 of 6.

`ClC1C(Cl)C(Cl)C(Cl)C(Cl)C1Cl` (stereo not given): the survivor count (T/C endpoint: mean survival time, dose: 400.0 mg/kg/injection, schedule: Q01DX009 (ip), vehicle: other) is listed as 4 of 6.

On to `COc1ccc2ccccc2c1-c1c(O)ccc2ccccc12`, for which the survivor count by setting is: (T/C endpoint: mean survival time, dose: 100.0 mg/kg/injection, schedule: Q01DX009 (ip), vehicle: other) 5 of 6; (T/C endpoint: mean survival time, dose: 200.0 mg/kg/injection, schedule: Q01DX009 (ip), vehicle: other) 6 of 6.

Take `N#CC(O)Cc1ccccc1` (stereo not given): the survivor count (T/C endpoint: mean survival time, dose: 20.0 mg/kg/injection, schedule: Q04DX003 (ip), vehicle: saline) is recorded as 1 of 6; the survivor count (T/C endpoint: mean survival time, dose: 100.0 mg/kg/injection, schedule: Q04DX003 (ip), vehicle: other) is reported as 0 of 6; the survivor count (T/C endpoint: mean survival time, dose: 200.0 mg/kg/injection, schedule: Q04DX003 (ip), vehicle: other) was 0 of 6; the survivor count (T/C endpoint: mean survival time, dose: 400.0 mg/kg/injection, schedule: Q04DX003 (ip), vehicle: other) was 0 of 6.

As for `CCN1C=C/C(=C/c2cc3scc(-c4ccccc4)[n+]3c3ccccc23)c2ccccc21`, the survivor count is 2 of 6 (T/C endpoint: mean survival time, dose: 0.08 mg/kg/injection, schedule: Q04DX003 (ip), vehicle: saline with Tween-80); 2 of 6 (T/C endpoint: mean survival time, dose: 0.16 mg/kg/injection, schedule: Q04DX003 (ip), vehicle: saline with Tween-80); 2 of 6 (T/C endpoint: mean survival time, dose: 0.32 mg/kg/injection, schedule: Q04DX003 (ip), vehicle: saline with Tween-80).

Turning to `CO[C@H]1[C@H](O)[C@H](O[C@H]2CC[C@@]3(C)[C@H](CC[C@@H]4[C@@H]3CC[C@]3(C)[C@@H](C5=CC(=O)OC5)CC[C@]43O)C2)O[C@@H](C)[C@@H]1O`, the survivor count by setting is: (T/C endpoint: mean survival time, dose: 8.0 mg/kg/injection, schedule: Q01DX001 (ip), vehicle: saline) 3 of 6; (T/C endpoint: mean survival time, dose: 75.0 mg/kg/injection, schedule: Q01DX001 (ip), vehicle: saline) 0 of 6; (T/C endpoint: mean survival time, dose: 150.0 mg/kg/injection, schedule: Q01DX001 (ip), vehicle: saline) 0 of 6; (T/C endpoint: mean survival time, dose: 300.0 mg/kg/injection, schedule: Q01DX001 (ip), vehicle: saline) 0 of 6.

In the case of `NC(CSC(c1ccccc1)(c1ccccc1)c1cccs1)C(=O)O` (stereo not given), the survivor count reads like this: (T/C endpoint: mean survival time, dose: 50.0 mg/kg/injection, schedule: Q01DX009 (ip), vehicle: saline) 6 of 6; (T/C endpoint: mean survival time, dose: 400.0 mg/kg/injection, schedule: Q01DX009 (ip), vehicle: saline) 6 of 6.

For the compound `[Cl][Pt+2][Cl].[NH-]c1ccc([N+](=O)[O-])cc1[NH-]`, the survivor count runs as follows: (T/C endpoint: mean survival time, dose: 160.0 mg/kg/injection, schedule: Q01DX009 (ip), vehicle: saline with Tween-80) 2 of 8; (T/C endpoint: mean survival time, dose: 320.0 mg/kg/injection, schedule: Q01DX009 (ip), vehicle: saline with Tween-80) 0 of 8.

In the case of `Cc1sc2cc(N)ccc2[n+]1C`, the survivor count (T/C endpoint: mean survival time, dose: 400.0 mg/kg/injection, schedule: Q04DX002 (ip), vehicle: saline with Tween-80) is listed as 0 of 3.

With `C[N+](C)(C)CCC(=O)c1ccc(C(=O)CC[N+](C)(C)C)cc1`, the survivor count under setting [3] is 0 of 6.

Regarding `O=C(O)CCC(=O)c1ccc(Cl)c(Cl)c1`, the survivor count runs as follows: (T/C endpoint: mean survival time, dose: 200.0 mg/kg/injection, schedule: Q01DX009 (ip), vehicle: saline with Tween-80) 6 of 6; under setting [4], 4 of 6.

Turning to `S=c1[nH]nc2n1NC(c1ccoc1)=NN2`, under setting [4], the survivor count was 3 of 6.

Take `CC([NH-])CC(C)[NH-].[Cl][Pt+2][Cl]` (stereo not given): the T/C runs as follows: (T/C endpoint: mean survival time, dose: 3.12 mg/kg/injection, schedule: Q04DX003 (ip), vehicle: saline with Tween-80) 144 % of control; (T/C endpoint: mean survival time, dose: 6.25 mg/kg/injection, schedule: Q04DX003 (ip), vehicle: saline with Tween-80) 148 % of control; (T/C endpoint: mean survival time, dose: 12.5 mg/kg/injection, schedule: Q04DX003 (ip), vehicle: saline with Tween-80) 128 % of control.

On to `CC1OC(OC2C(OC3CCC4(C)C(CCC5(C)C4CC=C4C6CC(C)(C)CCC6(CO)C(O)CC45C)C3(C)C)OC(CO)C(OC3OC(COC4OC(CO)C(O)C(O)C4O)C(O)C(O)C3O)C2O)C(O)C(O)C1O` (stereo not given), for which the survivor count (T/C endpoint: mean survival time, dose: 100.0 mg/kg/injection, schedule: Q01DX001 (sc), vehicle: steroid suspending solution) is 1 of 6 and the survivor count (T/C endpoint: mean survival time, dose: 200.0 mg/kg/injection, schedule: Q01DX001 (sc), vehicle: steroid suspending solution) is on record as 0 of 6.

For `COC(=O)CC(=O)CBr`, the survivor count was 0 of 6 (T/C endpoint: mean survival time, dose: 100.0 mg/kg/injection, schedule: Q01DX001 (ip), vehicle: saline); 0 of 6 (T/C endpoint: mean survival time, dose: 200.0 mg/kg/injection, schedule: Q01DX001 (ip), vehicle: saline); 0 of 6 (T/C endpoint: mean survival time, dose: 400.0 mg/kg/injection, schedule: Q01DX001 (ip), vehicle: saline).
